Screen size: about 400,000 compounds; about 5,500 (1.4%) were called active. Inconclusive results, whose numbers are uncertain, are shown with a selection of clear calls. The call rests on the fitted dose curve; in most records, active means well fitted cell-killing curve with a large enough effect; inconclusive means small, poorly fitted or top-dose-only effect, or effect the other way; inactive means flat fitted curve, though single readings scatter. Potencies of inconclusive entries are doubtful fits and often do not repeat.
Assay: qHTS assay for MDR1-selective chemotherapeutics: Primary screen using the parental adenocarcinoma cell KB-3-1; further: nearly all actives have a fitted effect of over 60% in size
Conditions: KB-3-1 viability, CellTiter-Glo ATP luminescence, 72 h; activity change, negative = cytotoxic: at 46.1 µM (top of the series)
Method in brief: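 Parental KB-3-1 viability, qHTS format: 72 h compound exposure, 37 °C; CellTiter-Glo; media-only wells and DMSO plates as controls; concentration-effect fits on corrected data.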
On the % scale 0 is the no-effect control and ±100 the full control effect; potency means the concentration at half of the fitted maximal effect.

SMILES | Potency | activity change, negative = cytotoxic
Cn1c(SCc2cccc([N+](=O)[O-])c2)nc2ccccc2c1=O | inconclusive: 29.1 µM [cytotoxic, single point] | 
CC(C)N(Cc1nc(-c2ccccc2)no1)C(=O)CN(C)S(=O)(=O)c1ccc(Br)cc1 | inconclusive: 29.1 µM [cytotoxic, single point] | 
CC(=O)c1cccc(NC(=O)c2ccc(-n3c(C)nnc3C)cc2)c1 | inconclusive: 32.6 µM [rising, single point] | 
CCOC(=O)Nc1ccc2c(c1)N(C(=O)CN(CC)CC)c1ccccc1CC2 |  | inactive: -3.44%
Cc1ccc(S(=O)(=O)Nc2ccc(S(=O)(=O)NC(C)(C)C)cc2)cc1 | inconclusive: 20.6 µM [cytotoxic, single point] | 
Cn1cc(-c2ccc(C(=O)Nc3cccc(Oc4ccccc4)c3)c3occc23)cn1 |  | inactive: -0.0037%
S=C(NCC1COc2ccccc2O1)Nc1ccc(Br)cc1 (stereo not given) | inconclusive: 18.4 µM [cytotoxic, partial curve, poor fit] | 
O=C(C(Cc1ccccc1)n1cccc1)N1CCN(c2ccccc2)CC1 (stereo not given) | inconclusive: 29.1 µM [cytotoxic, single point] | 
O=C(Nc1ccccc1)Nc1ccc(C(=O)N2CCOCC2)cc1 | inconclusive: 23.1 µM [cytotoxic, partial curve] | 
CN1/C(=C/C(=O)c2nc(S(C)(=O)=O)ncc2Cl)C(C)(C)c2ccccc21 | inconclusive: 29.1 µM [cytotoxic, single point] | 
Cc1nnc(SCCn2c(N3CCCC(C)C3)nc3c2c(=O)n(C)c(=O)n3C)s1 (stereo not given) |  | inactive: -2.13%
CCc1ccc(C(=O)c2cn(CC(=O)Nc3ccc(C)c(C)c3)c3ccccc3c2=O)cc1 | inconclusive: 16.4 µM [cytotoxic, single point] | 
COc1ccc(OCC(=O)N/N=C/c2ccc(O[C@@H]3O[C@H](CO)[C@@H](O)[C@H](O)[C@H]3O)cc2)cc1 | active: 3.66 µM | 
CCN1C(=O)/C(=C/C=C2\N(CC)c3cc(S(=O)(=O)N(C)C)ccc3N2c2ccccc2)SC1=S | inconclusive: 23.1 µM [cytotoxic, single point] | 
COC(=O)C[C@@H]1C=C[C@H](NC(=O)Nc2ccc(OC)cc2)[C@@H](CO)O1 |  | inactive: 7.35%
FC(F)(F)c1cccc(N2CCN(C(=S)NCC3CCCO3)CC2)c1 (stereo not given) | inconclusive: 25.9 µM [cytotoxic, single point] | 
COc1ccc(CNC(=O)C2CC(c3ccc(F)cc3)=NO2)cc1 (stereo not given) |  | inactive: 6.32%
COc1cccc(CNc2nc3cc(-c4ccccc4)sc3c(=O)n2C)c1OC | active: 23.1 µM | 
CN(C)c1ccc(C(CNC(=O)c2ccco2)N2CCCC2)cc1 (stereo not given) |  | inactive: 0.737%
Cn1cc(/C(Cc2ccccc2)=N\O)c2ccccc21 | inconclusive: 20.6 µM [cytotoxic, single point] | 
CCC1CCCCN1CCCNC(=O)C1CCN(Cc2nc(-c3ccc(Cl)cc3)oc2C)CC1 (stereo not given) | inconclusive: 16.4 µM [cytotoxic, single point] | 
COC(=O)c1cn(NC(=O)C2CCC(C)CC2)c(=O)c2ccccc12 (stereo not given) |  | inactive: 9.1%
Cc1c(C(=O)N/N=C/c2ccc(Cl)cc2)[nH]c2ccc(Cl)cc12 | active: 1.03 µM | 

SMILES | Potency | activity change, negative = cytotoxic
COc1ccc2[nH]c(C)c(CCN(Cc3cccs3)C(=S)Nc3ccccc3OC)c2c1 | inconclusive: 29.1 µM [cytotoxic, single point] | 
CC[n+]1c(-c2ccc(C)cc2)csc1Nc1c(C)n(C)n(-c2ccccc2)c1=O | inconclusive: 16.4 µM [cytotoxic, single point] | 
COc1ccc(NC(=S)N(CCCN2CCOCC2)Cc2cn(C)c3ccccc23)cc1 |  | inactive: -1.54%
O=C1C(Cl)=C(NCc2ccco2)C(=O)c2ccccc21 | inconclusive: 29.1 µM [cytotoxic, single point] | 
O=C(NCc1nnnn1-c1ccc(F)cc1)C1CC(=O)N(c2ccc(F)cc2)C1 (stereo not given) |  | inconclusive: 12.7%
Cc1ccccc1C(=O)NC1CC2CCCC(C1)N2Cc1ccc(Cl)cc1 (stereo not given) |  | inconclusive: -63.2%
COCCNC(=S)Nc1ccccc1Cc1ccccc1 | inconclusive: 3.66 µM [cytotoxic, full curve, poor fit] | 
Cc1ccc(N=Nc2c(N)nn(-c3ccccc3)c2N)cc1 | inconclusive: 25.9 µM [cytotoxic, single point] | 
O=C(O)c1cc([N+](=O)[O-])ccc1NCc1ccccc1 |  | inactive: -4.55%
CSc1ccc(S(=O)(=O)N2c3ccccc3CC2C)cc1 (stereo not given) | inconclusive: 29.1 µM [cytotoxic, single point] | 
CCCn1cnc2sc(CC)cc2c1=O | inconclusive: 29.1 µM [rising, single point] | 
COc1ccccc1/C=N\Nc1cc(C)nc(-n2nc(C)cc2C)n1 | active: 7.31 µM | 
O=C(NCc1cccnc1)/C(=C/c1ccc([N+](=O)[O-])cc1)NC(=O)c1ccccc1 |  | inactive: 2.23%
O=C(c1ccccc1)N(C(=O)c1ccccc1)c1ncnc2c1C(c1ccccc1)c1c(ccc3ccccc13)O2 (stereo not given) | inconclusive: 23.1 µM [cytotoxic, single point] | 
CC(C)OCCCNc1ncnc2c1[nH]c1ccccc12 | active: 7.31 µM | 
Nc1nc(Nc2ccccc2)nc(NC2CCCCC2)c1[N+](=O)[O-] | inconclusive: 20.6 µM [cytotoxic, partial curve, poor fit] | 
COc1ccccc1NS(=O)(=O)c1ccc(C(=O)N2CCN(c3ccccc3)CC2)cc1 |  | inactive: -22.5%
CC(C)NC(=O)COc1cccc2ccccc12 | inconclusive: 23.1 µM [rising, single point] | 
CCCC(=O)N1CCCC1(C)C(=O)Nc1cccc(OC(C)C)c1 (stereo not given) |  | inactive: 16.5%
COc1ccc(CCNC(=O)CC2SC(=NCc3ccccc3)NC2=O)cc1 (stereo not given) | inconclusive: 2.06 µM [rising, full curve, poor fit] | 
Fc1ccc(NC(=S)Nc2cccc3cnccc23)cc1 | inconclusive: 20.6 µM [cytotoxic, partial curve] | 
Cc1ccc(C)c(N2CCN(CCCNC(=O)CCn3c(=O)c4cccn4c4cccnc43)CC2)c1 | inconclusive: 29.1 µM [cytotoxic, single point] | 

By substructure, the entries above containing bromine.
SMILES | Potency | activity change, negative = cytotoxic
CC(C)N(Cc1nc(-c2ccccc2)no1)C(=O)CN(C)S(=O)(=O)c1ccc(Br)cc1 | inconclusive: 29.1 µM [cytotoxic, single point] | 
S=C(NCC1COc2ccccc2O1)Nc1ccc(Br)cc1 (stereo not given) | inconclusive: 18.4 µM [cytotoxic, partial curve, poor fit] | 
